Some of the results follow. Measured potencies and affinities stand elsewhere.

This experiment has as its system Acinetobacter baumannii. The settings on record: Concentration 32 ug.mL-1; ASSAY_TEST Inhibition of Bacterial Growth; detection method Absorption (OD600); MEDIA CAMHB; plate type 384well; NBS; CORNING #3640; time 18 hr.
In the case of `CC(=O)CC1O[C@H]([C@@H](O)CO)[C@@H](O)[C@H](O)[C@@H]1O` (stereo not given in full), the Inhibition was found to be 2.39%.

For `N.O=C(O)C1(O)C[C@@H](O)[C@H](O)[C@@H]([C@@H](O)CO)O1` (stereo not given in full), the Inhibition is -0.11%.

As to `OC[C@@H](O)[C@H]1OC(O)C[C@@H](O)[C@@H]1O` (stereo not given in full), the Inhibition is given as -0.79%.

Turning to `CCN(CC)CC.O=P(O)(O)OC1C[C@@H](O)[C@H](O)[C@@H]([C@H](O)CO)O1` (stereo not given in full), the Inhibition is listed as -2.35%.

In the case of `CCN(CC)CC.C[C@@H](CC1O[C@H]([C@@H](O)CO)[C@@H](O)[C@H](O)[C@@H]1O)OP(=O)(O)OC[C@H]1O[C@@H](n2cnc3c(N)ncnc32)[C@H](O)[C@@H]1O` (stereo not given in full), the Inhibition was 4.84%.

Regarding `CCN(CC)CC.C[C@@H](CC1O[C@H]([C@H](O)CO)[C@@H](O)[C@H](O)[C@@H]1O)OP(=O)(O)OC[C@H]1O[C@@H](n2cnc3c(N)ncnc32)[C@H](O)[C@@H]1O` (stereo not given in full), the Inhibition amounted to 10.62%.

Take `CCN(CC)CC.C[C@H](CC1O[C@H]([C@H](O)CO)[C@@H](O)[C@H](O)[C@@H]1O)OP(=O)(O)OC[C@H]1O[C@@H](n2cnc3c(N)ncnc32)[C@H](O)[C@@H]1O` (stereo not given in full): the Inhibition turned out to be 0.75%.

Take `CCN(CC)CC.C[C@@H](CC1O[C@H]([C@@H](O)CO)[C@@H](O)[C@H](O)[C@@H]1O)OP(=O)(O)O` (stereo not given in full): the Inhibition is listed as -2.2%.

`CCN(CC)CC.C[C@H](CC1O[C@H]([C@@H](O)CO)[C@@H](O)[C@H](O)[C@@H]1O)OP(=O)(O)O` (stereo not given in full): the Inhibition is -1.67%.

Regarding `CCN(CC)CC.C[C@H](CC1O[C@H]([C@@H](O)CO)[C@@H](O)[C@H](O)[C@@H]1O)OP(=O)(O)OC[C@H]1O[C@@H](n2cnc3c(N)ncnc32)[C@H](O)[C@@H]1O` (stereo not given in full), the Inhibition is reported as -0.37%.

The record behind these values is ChEMBL document CHEMBL4513143, “CO-ADD screening of University of Natural Resources and Life (Austria) compounds”.
